“Also recorded” adds a separate entry of the source. For at least one compound, name, drawing or mass did not settle the structure.
Tests used:
[1] = test system: IL-1β; assay: IL-1β secreted by peritoneal macrophages from diabetic rats (ELISA); type: in vivo, rat; conditions: STZ-diabetic rats, 30 mg/kg oral once per day for 3 weeks; macrophages cultured 18 h
[2] = test system: IL-6; assay: IL-6 secreted by peritoneal macrophages from diabetic rats (ELISA); type: in vivo, rat; conditions: STZ-diabetic rats, 30 mg/kg oral once per day for 3 weeks; macrophages cultured 18 h
[3] = test system: MMP-9; assay: MMP-9 in peritoneal exudates and PE macrophages of diabetic rats (gelatin zymography); type: in vivo, rat; conditions: STZ-diabetic rats, 30 mg/kg oral once per day for 3 weeks
[4] = test system: IL-10; assay: IL-10 in peritoneal exudate, CFE and serum of diabetic rats (ELISA); type: in vivo, rat; conditions: STZ-diabetic rats, 30 mg/kg oral once per day for 3 weeks
[5] = test system: resolvins; assay: Resolvin levels in resident peritoneal exudate and serum of diabetic rats; type: in vivo, rat; conditions: STZ-diabetic rats, 30 mg/kg daily oral gavage for three weeks
[6] = Severity of hyperglycemia in diabetic rats; type: in vivo, rat; conditions: STZ-diabetic rats, 30 mg/kg oral once per day for 3 weeks
[7] = test system: IL-1β relative to lipoxin A4; assay: Experiment A: IL-1β and lipoxin A4 secreted by macrophages from treated diabetic rats; type: in vivo, rat; conditions: 30 mg/kg oral once per day for 21 days
Procedure: In an in vivo experiment, three groups of adult male rats were established including non-diabetic controls (NDC group; n=6 rats/group); rats that were made diabetic and severely hyperglycemic by STZ injection (D+vehicle group; n=6 rats/group), and a 3rd group of rats (n=6 rats/group) in which the diabetics were orally administered CMC2.24 (30 mg/kg body weight) once per day for 21 days. At the end of the protocol, the rats were sacrificed and the peritoneal cells were collected by washing with cold 15 ml phosphate buffered saline/EDTA, The macrophages were harvested from the peritoneal wash from each rat, after 2 hours of adherence to culture plates (sterile conditions), the cells were counted and then incubated for 18 h at 37° C. in an atmosphere of 95% air/5% CO2. The conditioned media was then collected and analyzed for the resolvin, lipoxin A4, and for two inflammatory cytokines, IL-1β and IL-6. The data is expressed as a ratio of […] (pg/ml) relative to resolvin (ng/ml) secreted by the macrophages from the three experimental groups (FIG. 45A).

[8] = test system: MMP-12; assay: MMP-12 activity in BALF of COPD mice (casein zymography); type: in vivo, mouse; conditions: COPD mice exposed to PM2.5, gavage daily 7 days; P<0.05
[9] = test system: BAL inflammatory cells; assay: BAL inflammatory cell counts in COPD mice exposed to PM2.5; type: in vivo, mouse
[10] = test system: phosphorylated IκB-α; assay: Phosphorylated IκB-α in lung of COPD mice (western blot); type: in vivo, mouse; conditions: PM2.5 challenged COPD mice; p<0.05
[11] = test system: lung cell apoptosis; assay: Apoptotic cells in lung of COPD mice (TUNEL assay); type: in vivo, mouse; conditions: PM2.5 challenged COPD mice; p<0.05
[12] = test system: Bcl-2; assay: Bcl-2 expression in lung of COPD mice (western blot); type: in vivo, mouse; conditions: PM2.5 challenged COPD mice; p<0.05
[13] = test system: lung cell apoptosis; assay: Apoptotic cells in lung by TUNEL assay in S. aureus pneumonia; type: in vivo, mouse; conditions: infected SP-B-C and SP-B-T mice, vs respective controls; p<0.01
[14] = test system: Bcl-2; assay: Bcl-2 expression in lung in S. aureus pneumonia (Western blot); type: in vivo, mouse; conditions: infected SP-B-C (p<0.01) and SP-B-T (p<0.05) mice, vs controls
[15] = test system: neutrophils and macrophages/monocytes in BALF; assay: Inflammatory cells in BALF in S. aureus pneumonia; type: in vivo, mouse
[16] = test system: NF-κB p65 and p-IκB-α; assay: NF-κB p65 and p-IκB-α in lung in S. aureus pneumonia (Western blot); type: in vivo, mouse
[17] = test system: MMP-9; assay: MMP-9 activity in BALF in S. aureus pneumonia (zymography); type: in vivo, mouse; conditions: infected SP-B-C and SP-B-T mice, vs respective controls; p<0.05
[18] = infected SP-B-C and SP-B-T mice

## O=C(/C=C/c1ccc(O)cc1)C(C(=O)/C=C/c1ccc(O)cc1)C(=O)Nc1ccccc1 [CMC2.24]
[1]
  IL-1β secreted by macrophages: reduced to normal levels
[2]
  IL-6 secreted by macrophages: reduced to normal levels
[3]
  MMP-9 in cell-free exudates at day 4 and 6 after thioglycollate: normalized
  MMP-9 levels in PE macrophages and CFEs: reduced this 92 kDa gelatinase to normal levels
[4]
  IL-10 levels in PEs: normalized
[5]
  levels of one or more resolvins in rat serum: increases
  secretion levels of one or more resolvins in resident peritoneal macrophages and peritoneal fluid: significantly increases
[6]
  severity of hyperglycemia: without affecting the severity of hyperglycemia; also recorded: unaffected
[7]; p=0.004
  IL-1β secretion by the macrophages: dramatically decreased
[7]; p=0.02
  lipoxin A4 (resolvin) secretion by the macrophages: significantly increased
[8]
  MMP-12 activity in BALF supernatant: significantly inhibited
[9]
  percentage of neutrophils / inflammatory cell numbers in BALF: protected against the increase in inflammatory cell numbers
  total number of inflammatory cells in BAL: significantly reduced
[10]
  levels of phosphorylated IκB-α in lung: significantly decreased
[11]
  number of apoptotic (TUNEL-positive) cells in lung: significant reduction
[12]
  level of Bcl-2 in lung: significantly higher level
[13]
  apoptotic cells in lung (TUNEL): decreased apoptotic cells
[14]
  Bcl-2 expression in lung: increased levels
[15]; infected SP-B-C (p<0.01) and SP-B-T (p<0.05) mice, vs controls
  number of neutrophils in the BALF: decreased significantly
[15]; [18]
  number of macrophages in the BALF: decreased significantly
[16]; [18]
  levels of NF-κB p65 expression in lung tissues: decreased significantly
[16]; infected mice after CMC2.24 treatment
  levels of p-IκB in lung tissues: decreased levels
[17]
  MMP-9 activity in BALF: decreased levels

Source: US20210322346A1, “CHEMICALLY MODIFIED CURCUMINS FOR USE IN THE PRODUCTION OF LIPOXINS” (The Research Foundation for The State University of New York, priority 2015, published 2021)
